Laboratory results reported in article doi:10.1101/2023.07.26.549647.
These are yes or no findings as the source states them, for the method shown. In cells and extracts the contact can be indirect. Here binding means that the protein was enriched with, or labelled near, the bait; the list need not be complete. Tags and fused reporters may be left off the sequences shown.

T1: FLAG-BirA*-TBCCD1 (human TBCC domain-containing protein 1) (human) (UniProt Q9NVR7)
T1 sequence: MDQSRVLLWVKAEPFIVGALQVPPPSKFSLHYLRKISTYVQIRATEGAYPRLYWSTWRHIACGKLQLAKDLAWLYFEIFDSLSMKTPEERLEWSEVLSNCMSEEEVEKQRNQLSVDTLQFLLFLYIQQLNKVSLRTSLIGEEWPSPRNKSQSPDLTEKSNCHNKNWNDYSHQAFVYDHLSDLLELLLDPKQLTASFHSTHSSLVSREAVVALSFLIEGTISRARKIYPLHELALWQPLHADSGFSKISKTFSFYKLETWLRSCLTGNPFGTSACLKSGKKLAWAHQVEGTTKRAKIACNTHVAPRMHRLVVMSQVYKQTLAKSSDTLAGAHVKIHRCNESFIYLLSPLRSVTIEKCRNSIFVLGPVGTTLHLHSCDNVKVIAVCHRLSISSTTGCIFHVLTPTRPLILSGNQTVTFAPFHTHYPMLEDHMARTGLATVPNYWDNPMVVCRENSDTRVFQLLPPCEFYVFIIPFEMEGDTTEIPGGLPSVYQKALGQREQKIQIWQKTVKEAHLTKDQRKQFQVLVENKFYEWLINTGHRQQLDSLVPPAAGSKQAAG

B1: KIAA0753/Moonraker/OFIP (protein, UniProt Q2KHM9 1-967)
chain: MGPGQPASTCVHLAPRTQLDGRSDPKVLQTQNQLQFNRNVPTHSSNLAIRYSCPHAIRIEKLKHSYNESYHCKDADCRVGPDLGSSVSFSVISQERLSYAVHLARRDVKRRQFEKHIKEHHLRSQPQSSQKCGHTKYKIPDHRVERKESKSQAACQCSHQPSKVEISSSGAKVYLYSSHPGQSDLTVPNSPPTHDPGLQPHPRIGDHKNISEQKSLLEVQRLQKELSSCIHKIEEVTKKDRLEEALDPDEERRIRIRRQEQAARSARMLYVLQQQVKEIQEELDKLSPHKIKHTKKSWAMSKLAAAHRGAIRALQMFVTQFTDRGEHPLPARCKELGSLIRQLSLCSVKLDADPSVPDVVIDILQQIEALESLLEKKLSPKKVKKCFSEIRSRFPIGSQKALERWPSTSPKGERRPLTAKDTFPQETSRPSVAKQLLADKYQPDTELPETQRLQSELDVLDADIVLEEGPFILDQSASFKDEVLAVAKTKAGKKKPVTENVPFRKKDTLAPARQQGLRKAERGRQSQPHSKSRVQQTTVSSRLKMNRQPVKDRKAPWIPPNPTSPPASPKCAAWLKVKTSPRDATKEPLQQEDPQEESHLTGAVEHEAARLAWLDAETSKRLKELEELKAKEIDSMQKQRLDWLDAETSRRTKELNELKAEEMYRLQQLSVSATHLADKVEEAVLDRLKPLLVKAQRVNSTTEANIHLKDGSSVNTAKAQPAQEVAAVDFESNNIRQLDDFLEDCASELWAVTHAKILGSETLATVEDSKDSPDLEIMMRRMEEMEKYQESVRQRYNKIAYADPRLWMQEENNDQKISAISEKPLSPHPIRITKTVDRKDPAVNIMLERPCNGNSLDESVGTEEGSEKREAPLLSLAEDSQQKEGRAPLFVPPGMQHSIGDYCSRFEQYLRIISHEAVGSFNPWLIAESFSEELVDEALGAVAAELQDMCEDYAEAVFTSEFLEAAT
B2: MPHOSPH9 (protein, UniProt Q99550 1-1183)
chain: MEEFDLVKTLHKTSSSVGSDENSLHSLGLNLNTDRSSPHLSTNGVSSFSGKTRPSVIQGTVEVLTSLMQELQNSGKTDSELWKNCETRWLQLFNLVEKQCQEQIVAQQEQFHNQIQHIQEEIKNLVKLQTSSASLASCEGNSSNKQVSSESQMGFFSLSSERNESVIHYPESTEPEIQQEMSTSQPDCNVDSCSVSSGYGTFCISELNLYKSKDPKEFMEHIDVPKGQYVAPAVPAESLVDGVKNENFYIQTPEECHVSLKEDVSISPGEFEHNFLGENKVSEVYSGKTNSNAITSWAQKLKQNQPKRAHVEDGGSRSKQGNEQSKKTPIEKSDFAAATHPRAFYLSKPDETPNAWMSDSGTGLTYWKLEEKDMHHSLPETLEKTFISLSSTDVSPNQSNTSNEMKLPSLKDIYYKKQRENKQLPERNLTSASNPNHPPEVLTLDPTLHMKPKQQISGIQPHGLPNALDDRISFSPDSVLEPSMSSPSDIDSFSQASNVTSQLPGFPKYPSHTKASPVDSWKNQTFQNESRTSSTFPSVYTITSNDISVNTVDEENTVMVASASVSQSQLPGTANSVPECISLTSLEDPVILSKIRQNLKEKHARHIADLRAYYESEINSLKQKLEAKEISGVEDWKITNQILVDRCGQLDSALHEATSRVRTLENKNNLLEIEVNDLRERFSAASSASKILQERIEEMRTSSKEKDNTIIRLKSRLQDLEEAFENAYKLSDDKEAQLKQENKMFQDLLGEYESLGKEHRRVKDALNTTENKLLDAYTQISDLKRMISKLEAQVKQVEHENMLSLRHNSRIHVRPSRANTLATSDVSRRKWLIPGAEYSIFTGQPLDTQDSNVDNQLEETCSLGHRSPLEKDSSPGSSSTSLLIKKQRETSDTPIMRALKELDEGKIFKNWGTQTEKEDTSNINPRQTETSVNASRSPEKCAQQRQKRLNSASQRSSSLPPSNRKSSTPTKREIMLTPVTVAYSPKRSPKENLSPGFSHLLSKNESSPIRFDILLDDLDTVPVSTLQRTNPRKQLQFLPLDDSEEKTYSEKATDNHVNHSSCPEPVPNGVKKVSVRTAWEKNKSVSYEQCKPVSVTPQGNDFEYTAKIRTLAETERFFDELTKEKDQIEAALSRMPSPGGRITLQTRLNQEALEDRLERINRELGSVRMTLKKFHVLRTSANL
B3: CEP162 (protein, UniProt Q5TB80 1-1403)
chain: MANCSQEELDEEFEQFMKELSDDSFENSDKTARQSKKEMKKKDTVPWWITEDDFKDDGLLGTNVSYLKTKKTSQPVMEIEEESAEKIQFLKSSGTSLLSTDSLETNELVVSELNHSSLGVGLDTLEEQEEKEQFFARLEKGLTSSIDYSRLNKELDSNDSTHFKALHSNQANAELTDDEHENESKHEELAENYSDDFEDEYVGAPLTTKDEEMPSKENSKSEKISVPKQEEEKTGMLANVVLLDSLDSVAEVNLDEQDKITPKPRCLPEMTENEMTGTGVSYGQSSSDVEALHQAYCHIAHSLGDEDKQKIESNTVEDIKSSVKGHPQENEENSKNISTMESDLPTVEELMKPIRIDSFGISGFDLQPVSSEKVAERKETEFFSSLPLKMNPNILSQDSQHVNLFFDKNDENVILQKTTNESMENSCPQVTEVTATEEHVDKMYLNILRKKITVNSSSLSQDDKINKTYRSQLSSEEEGAVMGKQVPYKKARSAPPLLKRKPQSGLYASVRSSGYGKPSSPLKMFSTLEKKTSEDIIKSKNLRSISTSNQPRKKEILSGTKLIKPAALDKPAHKTESCLSTRKKSENPTETDSCIQFQTDSLGYCGENKEKKLLMFKRVQEAEDKWRGAQALIEQIKATFSEKEKELENKLEELKKQQEKELFKLNQDNYILQAKLSSFEETNKKQRWLHFGEAADPVTGEKLKQIQKEIQEQETLLQGYQQENERLYNQVKDLQEQNKKNEERMFKENQSLFSEVASLKEQMHKSRFLSQVVEDSEPTRNQNFTDLLAELRMAQKEKDSLLEDIKRLKQDKQALEVDFEKMKKERDQAKDQIAYVTGEKLYEIKILEETHKQEISRLQKRLQWYAENQELLDKDALRLREANEEIEKLKLEIEKLKAESGNPSIRQKIRLKDKAADAKKIQDLERQVKEMEGILKRRYPNSLPALILAASAAGDTVDKNTVEFMEKRIKKLEADLEGKDEDAKKSLRTMEQQFQKMKIQYEQRLEQQEQLLACKLNQHDSPRIKALEKELDDIKEAHQITVRNLEAEIDVLKHQNAELDVKKNDKDDEDFQSIEFQVEQAHAKAKLVRLNEELAAKKREIQDLSKTVERLQKDRRMMLSNQNSKGREEMSAKRAKKDVLHSSKGNANSFPGTLDSKLYQPHTFTDSHVSEVLQENYRLKNELEGLISEKNELKMKSEAVMNQFENSMRRVKEDTAAHIASLKASHQREIEKLLCQNAVENSSSKVAELNRKIATQEVLIRHFQSQVNELQSKQESLVVSEVREEILQKEITKLLEELREAKENHTPEMKHFVGLEKKIKQMEMRHAQREQELQQIIQQTHQVVETEQNKEVEKWKRLAQLKNRELEKFRTELDSILDVLRELHRQGVVVPVAFADEMNAPEY
B4: CEP90/PIBF1 (protein, UniProt Q8WXW3 1-757)
chain: MSRKISKESKKVNISSSLESEDISLETTVPTDDISSSEEREGKVRITRQLIERKELLHNIQLLKIELSQKTMMIDNLKVDYLTKIEELEEKLNDALHQKQLLTLRLDNQLAFQQKDASKYQELMKQEMETILLRQKQLEETNLQLREKAGDVRRNLRDFELTEEQYIKLKAFPEDQLSIPEYVSVRFYELVNPLRKEICELQVKKNILAEELSTNKNQLKQLTETYEEDRKNYSEVQIRCQRLALELADTKQLIQQGDYRQENYDKVKSERDALEQEVIELRRKHEILEASHMIQTKERSELSKEVVTLEQTVTLLQKDKEYLNRQNMELSVRCAHEEDRLERLQAQLEESKKAREEMYEKYVASRDHYKTEYENKLHDELEQIRLKTNQEIDQLRNASREMYERENRNLREARDNAVAEKERAVMAEKDALEKHDQLLDRYRELQLSTESKVTEFLHQSKLKSFESERVQLLQEETARNLTQCQLECEKYQKKLEVLTKEFYSLQASSEKRITELQAQNSEHQARLDIYEKLEKELDEIIMQTAEIENEDEAERVLFSYGYGANVPTTAKRRLKQSVHLARRVLQLEKQNSLILKDLEHRKDQVTQLSQELDRANSLLNQTQQPYRYLIESVRQRDSKIDSLTESIAQLEKDVSNLNKEKSALLQTKNQMALDLEQLLNHREELAAMKQILVKMHSKHSENSLLLTKTEPKHVTENQKSKTLNVPKEHEDNIFTPKPTLFTKKEAPEWSKKQKMKT
B5: WASHC4 (protein, UniProt Q2M389 1-1173)
chain: MAVETLSPDWEFDRVDDGSQKIHAEVQLKNYGKFLEEYTSQLRRIEDALDDSIGDVWDFNLDPIALKLLPYEQSSLLELIKTENKVLNKVITVYAALCCEIKKLKYEAETKFYNGLLFYGEGATDASMVEGDCQIQMGRFISFLQELSCFVTRCYEVVMNVVHQLAALYISNKIAPKIIETTGVHFQTMYEHLGELLTVLLTLDEIIDNHITLKDHWTMYKRLLKSVHHNPSKFGIQEEKLKPFEKFLLKLEGQLLDGMIFQACIEQQFDSLNGGVSVSKNSTFAEEFAHSIRSIFANVEAKLGEPSEIDQRDKYVGICGLFVLHFQIFRTIDKKFYKSLLDICKKVPAITLTANIIWFPDNFLIQKIPAAAKLLDRKSLQAIKIHRDTFLQQKAQSLTKDVQSYYVFVSSWMMKMESILSKEQRMDKFAEDLTNRCNVFIQGFLYAYSISTIIKTTMNLYMSMQKPMTKTSVKALCRLVELLKAIEHMFYRRSMVVADSVSHITQHLQHQALHSISVAKKRVISDKKYSEQRLDVLSALVLAENTLNGPSTKQRRLIVSLALSVGTQMKTFKDEELFPLQVVMKKLDLISELRERVQTQCDCCFLYWHRAVFPIYLDDVYENAVDAARLHYMFSALRDCVPAMMHARHLESYEILLDCYDKEIMEILNEHLLDKLCKEIEKDLRLSVHTHLKLDDRNPFKVGMKDLALFFSLNPIRFFNRFIDIRAYVTHYLDKTFYNLTTVALHDWATYSEMRNLATQRYGLVMTEAHLPSQTLEQGLDVLEIMRNIHIFVSRYLYNLNNQIFIERTSNNKHLNTINIRHIANSIRTHGTGIMNTTVNFTYQFLKKKFYIFSQFMYDEHIKSRLIKDIRFFREIKDQNDHKYPFDRAEKFNRGIRKLGVTPEGQSYLDQFRQLISQIGNAMGYVRMIRSGGLHCSSNAIRFVPDLEDIVNFEELVKEEGLAEETLKAARHLDSVLSDHTRNSAEGTEYFKMLVDVFAPEFRRPKNIHLRNFYIIVPPLTLNFVEHSISCKEKLNKKNKIGAAFTDDGFAMGVAYILKLLDQYREFDSLHWFQSVREKYLKEIRAVAKQQNVQSASQDEKLLQTMNLTQKRLDVYLQEFELLYFSLSSARIFFRADKTAAEENQEKKEKEEETKTSNGDLSDSTVSADPVVK

target: T1, FLAG-BirA*-TBCCD1 (human TBCC domain-containing protein 1) (human); experiment: proximity labelling

| binding | Binder |
| --- | --- |
| binds | B1 |
| binds | B2 |
| binds | B3 |
| binds | B4 |
| binds | B5 |
